Measured data: PubChem BioAssay AID504774 (Drosophila RNAi Screening Center, 2011)
In all, the deposit lists about 23,000 reagents; this is a random part of those that have a named target and a result. 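Values are quantile-normalised luminescence on an arbitrary scale; higher means more cells surviving MMS.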 Reagents against one gene are numbered here. Names joined by + are all predicted targets of the reagent. Not all columns of the deposit are shown.

- Purpose: 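Knock-downs that shift viability of MMS-exposed cells relative to untreated ones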 (primary screen)
- Cells: Drosophila Kc167 cells
- Reagent: long dsRNA against Drosophila genes, about 0.25 µg dsRNA per well
- Duration: about 6 days: 3 days knock-down, then 3 days with or without MMS
- Conditions: methyl methanesulphonate 0.004% (w/v) for 3 days after knock-down
- Read-out: 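ATP-dependent luminescence as a measure of live cells in MMS-exposed wells, quantile normalised within each plate, with replicate values also given as a mean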
- Direction: mean viability with MMS: higher = more surviving cells after MMS

Which result is listed for CG13488?
mean viability with MMS: 3.43e6

For CG14546, how do the results read?
mean viability with MMS: 3.60e6

For Nadk1a #1, what was measured?
mean viability with MMS: 3.63e6

How did the screen score Nadk1a #2?
mean viability with MMS: 3.95e6

With CG11149, what was measured?
mean viability with MMS: 3.56e6

With CG42323 #1, what does the deposit list?
mean viability with MMS: 3.46e6

For CG42323 #2, how do the results read?
mean viability with MMS: 3.60e6

What is on record for EMC2B?
mean viability with MMS: 3.53e6

How did the screen score trem?
mean viability with MMS: 3.39e6

Which result is listed for CG12909?
mean viability with MMS: 3.51e6

What did the screen give for CG9706?
mean viability with MMS: 3.59e6

What did the screen give for CG31683 + CG18858?
mean viability with MMS: 3.62e6

With Tcs3, how do the results read?
mean viability with MMS: 3.58e6

How did the screen score CG9649?
mean viability with MMS: 3.62e6

Which result is listed for Idh3b?
mean viability with MMS: 3.66e6

With Prm #1, what does the deposit list?
mean viability with MMS: 3.47e6

What did the screen give for Prm #2?
mean viability with MMS: 3.41e6

For Prm #3, what was measured?
mean viability with MMS: 3.61e6

What is on record for Cox11?
mean viability with MMS: 3.46e6

For Nbr, what does the deposit list?
mean viability with MMS: 3.53e6

How did the screen score Aatf?
mean viability with MMS: 3.50e6

Which result is listed for Enoph?
mean viability with MMS: 3.51e6

With CG13532, what does the deposit list?
mean viability with MMS: 3.63e6

What is on record for kumpel #1?
mean viability with MMS: 3.57e6

With kumpel #2, how do the results read?
mean viability with MMS: 3.46e6

What is on record for kumpel #3?
mean viability with MMS: 3.43e6

What did the screen give for kumpel #4?
mean viability with MMS: 3.52e6

What did the screen give for kumpel #5?
mean viability with MMS: 3.54e6

Which result is listed for kumpel #6?
mean viability with MMS: 3.66e6

For para #1, what does the deposit list?
mean viability with MMS: 3.64e6

Which result is listed for para #2?
mean viability with MMS: 3.45e6

Which result is listed for Zasp52 #1?
mean viability with MMS: 3.40e6

With Zasp52 #2, what does the deposit list?
mean viability with MMS: 3.48e6

For CG31195, how do the results read?
mean viability with MMS: 3.50e6

For thetaTry, what was measured?
mean viability with MMS: 3.78e6

What did the screen give for CG40341 (retired record) #1?
mean viability with MMS: 3.56e6

For CG40341 (retired record) #2, what does the deposit list?
mean viability with MMS: 3.49e6

With CG13786, how do the results read?
mean viability with MMS: 3.51e6

With CG4362, what was measured?
mean viability with MMS: 3.71e6

With Aldh, what does the deposit list?
mean viability with MMS: 3.49e6

For seq, what does the deposit list?
mean viability with MMS: 3.27e6

With Np #1, what does the deposit list?
mean viability with MMS: 3.55e6

How did the screen score Np #2?
mean viability with MMS: 3.72e6

For Np #3, how do the results read?
mean viability with MMS: 3.61e6

How did the screen score DUBAI + Tmem18?
mean viability with MMS: 3.47e6

6 entries from above, reformatted:
{"predicted target":"CG4362","dsRNA no.":1,"mean viability with MMS":3.71e6}
{"predicted target":"Aldh","dsRNA no.":1,"mean viability with MMS":3.49e6}
{"predicted target":"seq","dsRNA no.":1,"mean viability with MMS":3.27e6}
{"predicted target":"Np","dsRNA no.":1,"mean viability with MMS":3.55e6}
{"predicted target":"Np","dsRNA no.":2,"mean viability with MMS":3.72e6}
{"predicted target":"Np","dsRNA no.":3,"mean viability with MMS":3.61e6}
